Measurements from PubChem BioAssay AID2685 (National Center for Advancing Translational Sciences (NCATS), 2010).
Among all 320,000 compounds or so, about 2,100 (0.66%) were called active. The inconclusive results got no clear call from the source; some entries with a clear call stand among them for comparison. Calls come from the whole dose curve; as a rule, active = well fitted inhibition curve with a large enough effect in the signal ratio, with a control signal flat (not every such curve was filed as active); inconclusive = small, poorly fitted or top-dose-only effect, or effect the other way, or a change in a side signal; inactive = flat fitted curve, though single readings scatter; the % refers to the signal ratio. A potency beside an inconclusive call is a rough fit, not a confirmed value.

Assay: qHTS Assay for Lipid Storage Modulators in Drosophila S3 Cells
Settings: BODIPY lipid droplet fluorescence, 18-24 h, cells fed with added oleic acid; lipid storage change, negative = inhibition: at 46.1 µM (top of the series) unless noted
Procedure, shortened: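 Drosophila S3 cells loaded with oleic acid (400 uM, as added) and compounds at several concentrations; lipid droplets imaged by 488-nm laser-scanning cytometry, 500–530 nm intensity and object ratio to cell channel. Percent activity normalized to 20 uM Triacsin C.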
% is set by controls: 0 for no effect and ±100 for the full control effect; potency is the fitted concentration of half-maximal effect.

| SMILES | Potency | lipid storage change, negative = inhibition |
| --- | --- | --- |
| COc1cc(-c2nnc3sc(-c4cccs4)nn23)cc(OC)c1OC | inconclusive: 16.4 µM [activator, partial curve] | – |
| Nc1ccccc1SCc1cn2ccccc2n1 | – | inconclusive: -1.36% |
| CC(OC(=O)Cc1coc2ccc3ccccc3c12)C(=O)Nc1ncc(Cl)cc1Cl (stereo not drawn) | inconclusive: 6.51 µM [activator, single point] | – |
| O=C(NCc1ccc2c(c1)OCO2)C1CCN(S(=O)(=O)c2ccc(Br)s2)CC1 | inconclusive: 29.1 µM [activator, single point] | – |
| CCOC(=O)c1c(C)n(C)c2ccc(OC)c(NC(=O)CN3CCN(C(=O)c4ccco4)CC3)c12 | inconclusive: 3.26 µM [activator, single point] | – |
| CC1CCCCN1CC(=O)Nc1ccc2c(c1)OCO2 (stereo not drawn) | – | inconclusive: 12.7% |
| c1ccc(Nc2ccccc2)cc1 | – | inconclusive |
| Cc1ccc(/C=C/C2=NN(Cc3ccc(Cl)c(Cl)c3)C(=O)CC2)cc1 | – | inconclusive: 245% |
| Cc1c(Cl)cccc1NC(=O)Cc1ccc([N+](=O)[O-])cc1 | – | inconclusive: -97.4% |
| CCOc1ccc(CCNC(=O)CS(=O)Cc2nc(-c3ccccc3C)oc2C)cc1OCC (stereo not drawn) | – | inconclusive: -82.5% |
| Cc1ccccc1SCC(=O)Nc1cccc(C#N)c1 | inconclusive: 1.84 µM [activator, full curve] | – |
| O=C(Cn1nnc2ccccc21)Nc1ccc([N+](=O)[O-])cc1 | – | inconclusive: 18.6% |
| CC(C)CCn1nnnc1C(c1ccc(F)cc1)N1CCN(C(=O)c2ccco2)CC1 (stereo not drawn) | – | inconclusive: -8.6% |
| CCOC(=O)N1CCN(S(=O)(=O)c2ccc3c4c(cccc24)C(=O)N3)CC1 | – | inconclusive: -18% |
| O=C(Cc1cccs1)Nc1ccc(F)cc1F | inconclusive: 29.1 µM [activator, single point] | – |
| CCOC(=O)CCCn1ncn2c(cc3occc32)c1=O | – | inconclusive: 28.4% |
| CCOc1ncccc1C(=O)NNC(=O)c1ccccc1-n1cccc1 | – | inconclusive: -5.1% |
| C=CCn1c(=O)c2c(nc3n2CCN3c2cccc(Cl)c2C)n(C)c1=O | – | inconclusive: 33.5% |
| O=C(Nc1ccc(F)c([N+](=O)[O-])c1)C(=O)c1c(O)[nH]c2ccccc12 | – | inconclusive: 40.3% |
| Cc1cccc(C)c1NC(=O)CCc1nnc2ccc(N3CCCC3)nn12 | – | inconclusive: 58.1% |
| C/C(Cn1cnc([N+](=O)[O-])n1)=N\NC(=O)c1cccnc1 | – | inconclusive: 17.5% |
| COc1ccc(NCc2nc3ccccc3n2CCOc2ccc(C)cc2)cc1 | – | inconclusive: 29.1% |
| COc1ccc(C(=O)/C=C/C(=O)N(Cc2ccc3c(c2)OCO3)C(C(=O)NC2CCCCC2)c2ccncc2)c(O)c1 (stereo not drawn) | inconclusive: 23.1 µM [falling, single point] | – |
| NC(=O)COc1ccc(C(=O)/C=C2/C(=O)Nc3ccccc32)cc1 | inconclusive: 29.1 µM [falling, single point] | – |

| SMILES | Potency | lipid storage change, negative = inhibition |
| --- | --- | --- |
| O=C(Nc1nnc(SCC(=O)N2CCCC2)s1)C1CC(=O)N(c2ccccc2)C1 (stereo not drawn) | – | inconclusive: 22% |
| Cc1nn(CC(=O)NCCN2CCCCC2C)c(=O)c2cc(-c3ccccc3)nn12 (stereo not drawn) | – | inconclusive: 58.9% |
| CCN(c1ccccc1)S(=O)(=O)c1ccc(Cl)c(C(=O)OCC(=O)c2[nH]c(C)c(C(C)=O)c2C)c1 | inconclusive: 25.9 µM [activator, partial curve, poor fit] | – |
| O=S(=O)(O)c1ccc(N2N=C(c3ccccc3)CC2c2ccccc2)cc1 (stereo not drawn) | inconclusive: 2.06 µM [rising, full curve] | – |
| COC(=O)c1c(NC(=O)CN2CCCC(C)C2)c2c(C)cccc2n1C (stereo not drawn) | active: 3.26 µM | – |
| CCCOc1ccc(C2C(C(=O)c3cc4ccccc4o3)=C(O)C(=O)N2c2cc(C)on2)cc1OC (stereo not drawn) | – | inconclusive: 3.04% |
| O=C(C1COc2ccccc2O1)N1CCN(S(=O)(=O)c2cc(F)ccc2F)CC1 (stereo not drawn) | – | inconclusive: 14.8% |
| CN(Cc1cccc(F)c1)C(=O)CSc1nnnn1C1CC1 | inconclusive: 5.8 µM [activator, partial curve] | – |
| Nc1ccc(Oc2ccc3nc(-c4ccccc4)c(-c4ccccc4)nc3c2)cc1 | – | inconclusive: -20.4% |
| O=C(CCc1ccccc1)Nc1ccc2c(c1)OCCO2 | – | inconclusive: 31.1% |
| COc1ccccc1NC(=O)C1=C(C)NC2=C(C(=O)CC(c3ccc(OC)c(OC)c3)C2)C1c1coc2ccccc2c1=O (stereo not drawn) | inconclusive: 29.1 µM [falling, single point] | – |
| O=C(c1cc(C2CC2)on1)N1CCOCC1 | – | inconclusive: -43.2% |
| CCOc1ccccc1N(CC(=O)NCC1CCCO1)C(=O)CCC(=O)Nc1nccs1 (stereo not drawn) | inconclusive: 18.4 µM [activator, partial curve] | – |
| CC(NC(=O)c1ccc(CS(C)(=O)=O)cc1)c1ccc(-n2ccnc2)cc1 (stereo not drawn) | – | inconclusive: -3.08% |
| N#C/C(=C\c1ccc(OCc2ccc(C(=O)O)cc2)cc1)C(=O)N1CCOCC1 | inconclusive: 25.9 µM [falling, single point] | – |
| COc1cc(CNc2ccc3[nH]c(=O)[nH]c3c2)ccc1OCc1c(F)cccc1Cl | – | inconclusive: 13.1% |
| COC(=O)c1ccc(C)c(NS(=O)(=O)c2ccc(C)c([N+](=O)[O-])c2)c1 | – | inconclusive: -134% |
| O=C1CN(C(=O)COC(=O)c2ccc(Cl)cc2)c2ccccc2N1 | – | inconclusive |
| CC(C)(C)/C=N/NC(=O)C1CC1 | – | inconclusive: 23.8% |
| CCN1CCN(C(=S)NCCOC)CC1 | inconclusive: 29.1 µM [falling, single point] | – |
| COc1ccc(C2=NN(C(=S)Nc3ccccc3)C(c3ccccc3)C2)cc1 (stereo not drawn) | – | inconclusive: 46.8% |
| CCC1(CC)Cc2ccccc2C(C2=C(O)CC(C)(C)CC2=O)=N1 | – | inactive: -4.5% |
| CCCCn1nc(C(=O)N2CCc3ccccc32)c2ccccc2c1=O | inconclusive: 4.61 µM [activator, single point] | – |
| CN(C)c1nc2ccccc2c(N)c1-c1ccccc1 | – | inconclusive: 66.8% |

A stretch taken from the entries so far, as a working copy:

| SMILES | Potency | lipid storage change, negative = inhibition |
| --- | --- | --- |
| O=S(=O)(O)c1ccc(N2N=C(c3ccccc3)CC2c2ccccc2)cc1 (stereo not drawn) | inconclusive: 2.06 µM [rising, full curve] | – |
| COC(=O)c1c(NC(=O)CN2CCCC(C)C2)c2c(C)cccc2n1C (stereo not drawn) | active: 3.26 µM | – |
| CCCOc1ccc(C2C(C(=O)c3cc4ccccc4o3)=C(O)C(=O)N2c2cc(C)on2)cc1OC (stereo not drawn) | – | inconclusive: 3.04% |
| O=C(C1COc2ccccc2O1)N1CCN(S(=O)(=O)c2cc(F)ccc2F)CC1 (stereo not drawn) | – | inconclusive: 14.8% |
| CN(Cc1cccc(F)c1)C(=O)CSc1nnnn1C1CC1 | inconclusive: 5.8 µM [activator, partial curve] | – |
| Nc1ccc(Oc2ccc3nc(-c4ccccc4)c(-c4ccccc4)nc3c2)cc1 | – | inconclusive: -20.4% |
| O=C(CCc1ccccc1)Nc1ccc2c(c1)OCCO2 | – | inconclusive: 31.1% |
| COc1ccccc1NC(=O)C1=C(C)NC2=C(C(=O)CC(c3ccc(OC)c(OC)c3)C2)C1c1coc2ccccc2c1=O (stereo not drawn) | inconclusive: 29.1 µM [falling, single point] | – |
| O=C(c1cc(C2CC2)on1)N1CCOCC1 | – | inconclusive: -43.2% |
| CCOc1ccccc1N(CC(=O)NCC1CCCO1)C(=O)CCC(=O)Nc1nccs1 (stereo not drawn) | inconclusive: 18.4 µM [activator, partial curve] | – |
| CC(NC(=O)c1ccc(CS(C)(=O)=O)cc1)c1ccc(-n2ccnc2)cc1 (stereo not drawn) | – | inconclusive: -3.08% |
| N#C/C(=C\c1ccc(OCc2ccc(C(=O)O)cc2)cc1)C(=O)N1CCOCC1 | inconclusive: 25.9 µM [falling, single point] | – |
| COc1cc(CNc2ccc3[nH]c(=O)[nH]c3c2)ccc1OCc1c(F)cccc1Cl | – | inconclusive: 13.1% |
